The values below come from publication PMC5996148.

Test in all cases: protein microarray (ProtoArray v5.0), streptavidin-Alexa Fluor 647
What all share (details): 3'-biotin; 20 mM Tris (pH 7.5), 5 mM MgCl2, 100 mM KCl, 0.1% Tween-20, A/T-rich and random oligonucleotide blockers; temperature not stated; high values mean tight binding

The test system of experiment [1] is PSG3 (human).
Experiment [2] deals with PSIP1 (human).
Experiment [3] deals with PSMA1 (human).
Experiment [4] concerns PSMA4 (human).
Experiment [5] relates to PSMA5 (human).
Experiment [6] deals with PSMB4 (human).
The subject of experiment [7] is PSMB8 (human).
Experiment [8] has as its system PSMC4 (human).
The test system of experiment [9] is PSMD10 (human).
For experiment [10], the system named is PSMD11 (human).

The other results are listed elsewhere or left out.

As to “GGGAGGCTGAGGCAGG [G4-1 biotinylated (PQS2)]”, the binding signal in experiment [1] is -0.31 z-score; in [2] it was -0.328 z-score; in [3] it was -0.319 z-score; in experiment [4], -0.338 z-score; in experiment [5], -0.335 z-score; in experiment [6], -0.256 z-score. Also, the binding signal was -0.321 z-score in experiment [7], -0.294 z-score in experiment [8], -0.34 z-score in experiment [9] and -0.354 z-score in experiment [10].
